Assay results reported in patent publication US11932642B1, “Substituted pyrido[3′,4′:4,5]pyrrolo[3,2-b][1,6]naphthyridines as CK2 inhibitors” (KING FAISAL UNIVERSITY, priority 2023, dated 2024).

Tests used:
Format in all cases: cell-based
[1] = test system: A375 (melanoma); assay: In vitro cytotoxic activity (MTT) assay, A375; settings: Homo sapiens, A-375; A375 (melanoma) cells, exposed for 96 hours; read-out: IC50, concentration of compound eliciting a 50% inhibition of cell proliferation
Experimental: (§1) Compounds 1-12 were screened for their in vitro cytotoxic activity utilizing a 3-(4,5-dimethyl-thiazol-2-yl)-2,5-diphenyltetrazolium bromide (MTT) assay against selected cancer human cell lines consisting of PC3 (prostate), HCT116 (colon), A375 (melanoma), H1299 (lung), MIAPaCa-2 (pancreas), HL60 (leukemia), MCF7 (breast), MDA-MB-231 (breast) (T. Mosmann, J. Immunol. Meth., 1983, 65, 55-63). The cells were cultured at 37° C. in RMPI1640 medium supplemented with 10% fetal bovine serum, 50 IU/mL penicillin, and 50 μg/mL streptomycin in a 5% CO2 incubator. All cells were sub-cultured 3 times/week by trypsinisation. Viable cells were seeded and allowed to adhere for 12 h before a test drug was added in 96-well plates at an initial density of 1.0×10^5 cells/mL. Tumour cell lines were separately exposed to various concentrations of the tested compounds followed by incubation at a temperature of 37° C. during 96 h inside a medium of fresh RMPI 1640. Cells were subsequently incubated at 37° C. using MTT at 0.5 mg/mL during 4 h. After removal of supernatant, formazan crystals were dissolved in isopropanol and the optical density was measured at 570 nm. CX-4945 was used as a positive control.

[2] = test system: H1299 (lung); assay: In vitro cytotoxic activity (MTT) assay, H1299; settings: Homo sapiens, NCI-H1299; H1299 (lung) cells, exposed for 96 hours; read-out: IC50, concentration of compound eliciting a 50% inhibition of cell proliferation
Experimental: as §1

[3] = test system: MIAPaCa-2 (pancreas); assay: In vitro cytotoxic activity (MTT) assay, MIAPaCa-2; settings: Homo sapiens, MIA PaCa-2; MIAPaCa-2 (pancreas) cells, exposed for 96 hours; read-out: IC50, concentration of compound eliciting a 50% inhibition of cell proliferation
Experimental: as §1

[4] = test system: HL60 (leukemia); assay: In vitro cytotoxic activity (MTT) assay, HL60; settings: Homo sapiens, HL-60; HL60 (leukemia) cells, exposed for 96 hours; read-out: IC50, concentration of compound eliciting a 50% inhibition of cell proliferation
Experimental: as §1

[5] = test system: MDA-MB-231 (breast); assay: In vitro cytotoxic activity (MTT) assay, MDA-MB-231; settings: Homo sapiens; MDA-MB-231 (breast) cells, exposed for 96 hours; read-out: IC50, concentration of compound eliciting a 50% inhibition of cell proliferation
Experimental: as §1

[6] = test system: MCF7 (breast); assay: In vitro cytotoxic activity (MTT) assay, MCF7; settings: Homo sapiens; MCF7 (breast) cells, exposed for 96 hours; read-out: IC50, concentration of compound eliciting a 50% inhibition of cell proliferation
Experimental: as §1

[7] = test system: HCT116 (colon); assay: In vitro cytotoxic activity (MTT) assay, HCT116; settings: Homo sapiens, HCT-116; HCT116 (colon) cells, exposed for 96 hours; read-out: IC50, concentration of compound eliciting a 50% inhibition of cell proliferation
Experimental: as §1

[8] = test system: PC3 (prostate); assay: In vitro cytotoxic activity (MTT) assay, PC3; settings: Homo sapiens, Prostate cell; PC3 (prostate) cells, exposed for 96 hours; read-out: IC50, concentration of compound eliciting a 50% inhibition of cell proliferation
Experimental: as §1

Q: What does the source list for `O=C(O)c1ccc2c(c1)nc(Nc1cccc(Cl)c1)c1ccncc12` [CX-4945, reference compound]?
A: IC50 [1]: 4.1 µM; IC50 [2]: 2.3 µM; IC50 [3]: 1 µM; IC50 [4]: 3.7 µM; IC50 [5]: 6.2 µM; IC50 [6]: 9.1 µM; IC50 [7]: 2.3 µM; IC50 [8]: 2 µM
